Measured values published in publication PMC9254885.
Results are given in words; binding and its absence hold for the method and conditions named. Binding seen in cells or lysates may run through a third protein. Some entries that bind do so weakly or less than the wild type.

B1: endogenous CPS1 (HepG2 cells) (enzyme, UniProt P31327 39-1500)
chain: LSVKAQTAHIVLEDGTKMKGYSFGHPSSVAGEVVFNTGLGGYPEAITDPAYKGQILTMANPIIGNGGAPDTTALDELGLSKYLESNGIKVSGLLVLDYSKDYNHWLATKSLGQWLQEEKVPAIYGVDTRMLTKIIRDKGTMLGKIEFEGQPVDFVDPNKQNLIAEVSTKDVKVYGKGNPTKVVAVDCGIKNNVIRLLVKRGAEVHLVPWNHDFTKMEYDGILIAGGPGNPALAEPLIQNVRKILESDRKEPLFGISTGNLITGLAAGAKTYKMSMANRGQNQPVLNITNKQAFITAQNHGYALDNTLPAGWKPLFVNVNDQTNEGIMHESKPFFAVQFHPEVTPGPIDTEYLFDSFFSLIKKGKATTITSVLPKPALVASRVEVSKVLILGSGGLSIGQAGEFDYSGSQAVKAMKEENVKTVLMNPNIASVQTNEVGLKQADTVYFLPITPQFVTEVIKAEQPDGLILGMGGQTALNCGVELFKRGVLKEYGVKVLGTSVESIMATEDRQLFSDKLNEINEKIAPSFAVESIEDALKAADTIGYPVMIRSAYALGGLGSGICPNRETLMDLSTKAFAMTNQILVEKSVTGWKEIEYEVVRDADDNCVTVCNMENVDAMGVHTGDSVVVAPAQTLSNAEFQMLRRTSINVVRHLGIVGECNIQFALHPTSMEYCIIEVNARLSRSSALASKATGYPLAFIAAKIALGIPLPEIKNVVSGKTSACFEPSLDYMVTKIPRWDLDRFHGTSSRIGSSMKSVGEVMAIGRTFEESFQKALRMCHPSIEGFTPRLPMNKEWPSNLDLRKELSEPSSTRIYAIAKAIDDNMSLDEIEKLTYIDKWFLYKMRDILNMEKTLKGLNSESMTEETLKRAKEIGFSDKQISKCLGLTEAQTRELRLKKNIHPWVKQIDTLAAEYPSVTNYLYVTYNGQEHDVNFDDHGMMVLGCGPYHIGSSVEFDWCAVSSIRTLRQLGKKTVVVNCNPETVSTDFDECDKLYFEELSLERILDIYHQEACGGCIISVGGQIPNNLAVPLYKNGVKIMGTSPLQIDRAEDRSIFSAVLDELKVAQAPWKAVNTLNEALEFAKSVDYPCLLRPSYVLSGSAMNVVFSEDEMKKFLEEATRVSQEHPVVLTKFVEGAREVEMDAVGKDGRVISHAISEHVEDAGVHSGDATLMLPTQTISQGAIEKVKDATRKIAKAFAISGPFNVQFLVKGNDVLVIECNLRASRSFPFVSKTLGVDFIDVATKVMIGENVDEKHLPTLDHPIIPADYVAIKAPMFSWPRLRDADPILRCEMASTGEVACFGEGIHTAFLKAMLSTGFKIPQKGILIGIQQSFRPRFLGVAEQLHNEGFKLFATEATSDWLNANNVPATPVAWPSQEGQNPSLSSIRKLIRDGSIDLVINLPNNNTKFVHDNYVIRRTAVDSGIPLLTNFQVTKLFAEAVQKSRKVDSKSLFHYRQYSAGKAA
B2: endogenous OGT (HepG2 cells) (enzyme, UniProt O15294 1-1046)
chain: MASSVGNVADSTEPTKRMLSFQGLAELAHREYQAGDFEAAERHCMQLWRQEPDNTGVLLLLSSIHFQCRRLDRSAHFSTLAIKQNPLLAEAYSNLGNVYKERGQLQEAIEHYRHALRLKPDFIDGYINLAAALVAAGDMEGAVQAYVSALQYNPDLYCVRSDLGNLLKALGRLEEAKACYLKAIETQPNFAVAWSNLGCVFNAQGEIWLAIHHFEKAVTLDPNFLDAYINLGNVLKEARIFDRAVAAYLRALSLSPNHAVVHGNLACVYYEQGLIDLAIDTYRRAIELQPHFPDAYCNLANALKEKGSVAEAEDCYNTALRLCPTHADSLNNLANIKREQGNIEEAVRLYRKALEVFPEFAAAHSNLASVLQQQGKLQEALMHYKEAIRISPTFADAYSNMGNTLKEMQDVQGALQCYTRAIQINPAFADAHSNLASIHKDSGNIPEAIASYRTALKLKPDFPDAYCNLAHCLQIVCDWTDYDERMKKLVSIVADQLEKNRLPSVHPHHSMLYPLSHGFRKAIAERHGNLCLDKINVLHKPPYEHPKDLKLSDGRLRVGYVSSDFGNHPTSHLMQSIPGMHNPDKFEVFCYALSPDDGTNFRVKVMAEANHFIDLSQIPCNGKAADRIHQDGIHILVNMNGYTKGARNELFALRPAPIQAMWLGYPGTSGALFMDYIITDQETSPAEVAEQYSEKLAYMPHTFFIGDHANMFPHLKKKAVIDFKSNGHIYDNRIVLNGIDLKAFLDSLPDVKIVKMKCPDGGDNADSSNTALNMPVIPMNTIAEAVIEMINRGQIQITINGFSISNGLATTQINNKAATGEEVPRTIIVTTRSQYGLPEDAIVYCNFNQLYKIDPSTLQMWANILKRVPNSVLWLLRFPAVGEPNIQQYAQNMGLPQNRIIFSPVAPKEEHVRRGQLADVCLDTPLCNGHTTGMDVLWAGTPMVTMPGETLASRVAASQLTCLGCLELIAKNRQEYEDIAVKLGTDLEYLKKVRGKVWKQRISSPLFNTKQYTMELERLYLQMWEHYAAGNKPDHMIKPVEVTESA

How the values were obtained:
[1] = target: T1, endogenous OGT (HepG2 cells) (human (endogenous in HepG2)) (UniProt O15294); test: co-IP; HepG2 cells cultured with low and high glucose for 16 h; IP of endogenous proteins with anti-CPS1 and anti-OGT antibody
T1 sequence: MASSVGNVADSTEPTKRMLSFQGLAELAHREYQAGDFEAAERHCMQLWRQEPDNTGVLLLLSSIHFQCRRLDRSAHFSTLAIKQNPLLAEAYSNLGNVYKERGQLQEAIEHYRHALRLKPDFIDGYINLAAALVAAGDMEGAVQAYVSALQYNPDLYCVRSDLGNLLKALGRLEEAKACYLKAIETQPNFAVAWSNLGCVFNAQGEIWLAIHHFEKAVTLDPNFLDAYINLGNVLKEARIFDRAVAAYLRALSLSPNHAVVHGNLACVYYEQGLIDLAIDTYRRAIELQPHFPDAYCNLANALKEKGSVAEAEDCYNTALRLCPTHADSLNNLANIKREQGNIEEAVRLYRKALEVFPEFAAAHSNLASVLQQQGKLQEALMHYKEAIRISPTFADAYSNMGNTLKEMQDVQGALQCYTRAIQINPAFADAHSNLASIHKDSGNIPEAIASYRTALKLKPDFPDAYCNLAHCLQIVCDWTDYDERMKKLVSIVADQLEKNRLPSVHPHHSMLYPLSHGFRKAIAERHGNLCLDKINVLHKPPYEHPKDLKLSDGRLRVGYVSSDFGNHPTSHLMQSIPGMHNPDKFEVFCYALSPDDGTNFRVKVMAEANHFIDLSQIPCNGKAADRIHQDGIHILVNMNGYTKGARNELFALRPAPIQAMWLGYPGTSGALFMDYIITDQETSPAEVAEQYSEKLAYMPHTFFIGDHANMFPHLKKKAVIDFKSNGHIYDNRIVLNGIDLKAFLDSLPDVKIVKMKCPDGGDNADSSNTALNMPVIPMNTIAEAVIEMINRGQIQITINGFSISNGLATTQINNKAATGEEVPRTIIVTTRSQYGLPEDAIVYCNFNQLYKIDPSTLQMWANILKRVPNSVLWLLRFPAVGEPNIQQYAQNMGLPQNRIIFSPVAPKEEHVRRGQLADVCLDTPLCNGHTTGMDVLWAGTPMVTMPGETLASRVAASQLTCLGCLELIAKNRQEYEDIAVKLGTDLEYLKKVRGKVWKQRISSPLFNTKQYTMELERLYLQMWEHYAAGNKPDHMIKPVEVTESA

[2] = target: T2, endogenous CPS1 (HepG2 cells) (human (endogenous in HepG2)) (UniProt P31327); test: as above
T2 sequence: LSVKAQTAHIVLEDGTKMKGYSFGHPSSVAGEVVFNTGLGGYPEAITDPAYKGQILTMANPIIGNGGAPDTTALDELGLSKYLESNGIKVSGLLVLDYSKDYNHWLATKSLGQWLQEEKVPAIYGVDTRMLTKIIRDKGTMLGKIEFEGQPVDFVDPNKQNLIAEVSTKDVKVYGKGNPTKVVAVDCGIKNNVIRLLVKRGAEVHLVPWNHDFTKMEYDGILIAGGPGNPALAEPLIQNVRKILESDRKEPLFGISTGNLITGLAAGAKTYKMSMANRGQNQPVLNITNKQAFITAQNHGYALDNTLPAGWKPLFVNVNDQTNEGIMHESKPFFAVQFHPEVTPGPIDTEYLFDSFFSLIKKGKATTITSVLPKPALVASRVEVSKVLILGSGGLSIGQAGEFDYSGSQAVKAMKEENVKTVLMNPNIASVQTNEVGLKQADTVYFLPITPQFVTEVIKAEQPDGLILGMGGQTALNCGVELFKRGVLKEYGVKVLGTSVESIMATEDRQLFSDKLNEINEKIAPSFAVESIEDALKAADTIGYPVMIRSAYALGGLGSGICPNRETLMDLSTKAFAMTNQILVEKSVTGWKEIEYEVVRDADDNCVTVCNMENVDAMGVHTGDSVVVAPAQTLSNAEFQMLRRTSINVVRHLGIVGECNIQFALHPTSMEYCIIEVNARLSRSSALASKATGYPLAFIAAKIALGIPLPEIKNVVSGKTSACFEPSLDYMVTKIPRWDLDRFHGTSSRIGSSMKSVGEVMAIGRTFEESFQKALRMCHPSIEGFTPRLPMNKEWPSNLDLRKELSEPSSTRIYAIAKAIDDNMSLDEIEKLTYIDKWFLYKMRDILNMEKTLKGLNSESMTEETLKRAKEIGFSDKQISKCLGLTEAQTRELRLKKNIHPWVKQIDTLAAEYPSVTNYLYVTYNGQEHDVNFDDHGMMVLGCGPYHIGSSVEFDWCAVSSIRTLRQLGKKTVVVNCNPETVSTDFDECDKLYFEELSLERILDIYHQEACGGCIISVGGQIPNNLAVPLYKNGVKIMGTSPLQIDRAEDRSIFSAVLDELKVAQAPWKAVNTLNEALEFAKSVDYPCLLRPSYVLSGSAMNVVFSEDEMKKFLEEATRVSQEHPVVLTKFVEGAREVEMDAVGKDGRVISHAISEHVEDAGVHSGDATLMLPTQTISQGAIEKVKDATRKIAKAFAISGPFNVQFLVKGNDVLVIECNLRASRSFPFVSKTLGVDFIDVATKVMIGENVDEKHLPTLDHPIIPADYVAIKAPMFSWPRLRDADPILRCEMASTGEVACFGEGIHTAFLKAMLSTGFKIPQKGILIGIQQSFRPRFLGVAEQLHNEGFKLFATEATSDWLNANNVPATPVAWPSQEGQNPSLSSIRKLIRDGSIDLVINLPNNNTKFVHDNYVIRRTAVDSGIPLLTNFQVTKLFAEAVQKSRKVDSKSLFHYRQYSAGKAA

Row | Binder | binding [1] | binding [2]
1 | B1 | binds | 
2 | B2 |  | binds
